# Experimental data from the supplement of paper PMC7858590.
# Several values for one entry are separate records, joined by “and”; a condition that tells them apart may be missing. Equal values may be shown once. ± gives the standard deviation of the averaged measurements. Over roughly 3,800 compounds, “cell shape (eccentricity) Z-score vs DMSO control” has its median near 1.1; the lowest 2% begin near -4.7. The list shows a part of the results.
# System: human monocyte-derived macrophages (M0)
# Experiment: cell shape (eccentricity) Z-score vs DMSO control; higher = more elongated, M2-like morphology
# Conditions: 20 µM; 24 h; macrophage state: M0 (M-CSF)
row,SMILES,cell shape (Z-score)
1,Cn1cncc1[C@@](N)(c1ccc(Cl)cc1)c1ccc2c(c1)c(-c1cccc(Cl)c1)cc(=O)n2C,5.12
2,COc1cc([C@@H]2c3cc4c(cc3C(O[C@@H]3O[C@@H]5CO[C@@H](c6cccs6)OC5[C@H](O)[C@H]3O)C3COC(=O)[C@@H]32)OCO4)cc(OC)c1O (stereo partly specified),4.28
3,COc1ccc2c(c1)c(CC(=O)O)c(C)n2C(=O)c1ccc(Cl)cc1,3.43
4,C/C=C1/CN2CCC1C(CO)(C(=O)OC)c1[nH]c3ccccc3c1C2 (stereo unspecified),-0.866
5,CCCN(CC1CC1)c1nc(C)nc(Nc2c(Cl)cc(Cl)cc2Cl)c1Cl,1.02
6,COc1cc2oc(=O)ccc2cc1CC(O)C(C)(C)O (stereo unspecified),2.48
7,CC(C)(C)NCC(O)COc1nsnc1N1CCOCC1 (stereo unspecified),1.68
8,CCC1(C)CC(=O)NC1=O (stereo unspecified),9.26
9,CC(=O)Nc1ccc(OC(C)=O)cc1,-0.926
10,O=C1OC2(c3ccc(O)cc3Oc3cc(O)ccc32)c2ccccc21,2.01
11,Cc1nccn1C[C@@H]1CCc2c(c3ccccc3n2C)C1=O,0.13
12,CC(NCCc1ccc(O)cc1)C(O)c1ccc(O)cc1 (stereo unspecified),3.05
13,O=C(O)CN1C(=O)c2cccc3cccc(c23)C1=O,-6.86
14,CC1(C)CC[C@]2(C(=O)OC3OC(CO)C(OC4OC(CO)C(O)C(O)C4O)C(O)C3O)CC[C@]3(C)C(=CCC4[C@@]5(C)CC[C@H](OC6OC(C(=O)O)C(O)C(O)C6O)C(CO)(CO)C5CC[C@]43C)[C@@H]2C1 (stereo partly specified),1.87 ± 2.7
15,C=C[C@@]1(C)CCC2=C([C@H]1OC(C)=O)[C@H](OC(C)=O)CC1[C@](C)(C(=O)OC)CC[C@H](OC(C)=O)[C@]21C (stereo partly specified),1.6
16,COc1c(O)cc2c(=O)oc3c(OC)c(O[C@@H]4OC[C@@H](O)[C@H](O)[C@H]4O)cc4c(=O)oc1c2c34,0.649 ± 1.7
17,CC/C=C/c1ccc(C)cc1CCCCCC(=O)O,3.58
18,CC[C@@H](CO)Nc1nc(NCc2ccccc2)c2ncn(C(C)C)c2n1,2.91
19,CC(C)C[C@](CC(=O)OCc1ccc(O[C@@H]2O[C@H](CO)[C@@H](O)[C@H](O)[C@H]2O)cc1)(O[C@@H]1O[C@H](CO)[C@@H](O)[C@H](O)[C@H]1O)C(=O)OCc1ccc(O[C@@H]2O[C@H](CO)[C@@H](O)[C@H](O)[C@H]2O)cc1,0.0281
20,O=C1c2c(O)ccc(O)c2C(=O)c2c(NCCNCCO)ccc(NCCNCCO)c21,-3.95
21,CCn1cc(C(=O)O)c(=O)c2cc(F)c(N3CCNCC3)nc21,-1.1

row,SMILES,cell shape (Z-score)
1,CCOC(=O)CC(=O)N1CCSC1COc1ccccc1OC (stereo unspecified),0.257
2,COC1=CC(=O)O/C1=C(/OC)[C@@H]1O[C@H]1c1ccccc1,1.67
3,COc1cc2c(cc1OC)-c1c/c(=N\c3c(C)cc(C)cc3C)n(C)c(=O)n1CC2,-0.597
4,O=C1CN(/N=C/c2ccc(-c3ccc([N+](=O)[O-])cc3)o2)C(=O)N1,2.87
5,COc1cc(O)c2c(=O)c(OC)c(-c3ccc(OC)c(OC)c3)oc2c1,-4.42 and -3.16
6,CCCn1c(=O)c2nc[nH]c2n(-c2ccc(Cl)cc2)c1=O,0.799
7,Nc1nc(Nc2ccc3c(c2)CC[C@@H](N2CCCC2)CC3)nn1-c1cc2c(nn1)-c1ccccc1CCC2,11.4
8,NS(=O)(=O)c1cc2c(cc1C(F)(F)F)NCNS2(=O)=O,1.99
9,CC1(C)CC[C@]2(C(=O)O)CC[C@]3(C)C(=CCC4[C@@]5(C)C[C@@H](O)[C@H](O)[C@](C)(CO)C5CC[C@]43C)[C@@H]2[C@@H]1O (stereo partly specified),0.0107
10,C[C@@H]1O[C@@H](O[C@H]2CC[C@@]3(C)C(CC[C@]4(C)C3CC=C3C5CC(C)(C)CC[C@]5(C(=O)O[C@@H]5O[C@H](CO)[C@@H](O)[C@H](O)[C@H]5O)CC[C@]34C(=O)O)C2(C)C)[C@H](O)[C@H](O)[C@H]1O (stereo partly specified),-0.584
11,C/C=C(\C)C(=O)O[C@H]1C=CC(=O)O[C@H]1/C=C/[C@H](O)[C@H](C)O,-0.251
12,CCCn1c(=O)c2[nH]c(-c3ccc(OCC(=O)Nc4ccc(C#N)cc4)cc3)nc2n(CCC)c1=O,2.15
13,COc1cc(O)c(CC=C(C)C)cc1C(=O)/C=C/c1ccc(O)c(CC=C(C)C)c1,1.1
14,COc1cc(-c2ccc(/N=N/c3ccc4c(S(=O)(=O)O)cc(S(=O)(=O)O)c(N)c4c3O)c(OC)c2)ccc1/N=N/c1ccc2c(S(=O)(=O)O)cc(S(=O)(=O)O)c(N)c2c1O,1.91
15,CC(C)NC(=O)Nc1ccc2c(c1)C(=O)N([C@H](C)CO)C[C@@H](C)[C@H](CN(C)S(=O)(=O)c1ccc(Cl)cc1)O2,0.985
16,CCC[C@@H](N[C@@H](C)C(=O)N1[C@@H](C(=O)O)C[C@@H]2CCCC[C@@H]21)C(=O)OCC,-2.33
17,COC(=O)C1=COC(O[C@@H]2O[C@H](CO)[C@@H](O)[C@H](O)[C@H]2O)[C@H]2[C@@H]1[C@H](OC(=O)CCc1ccc(O)cc1)C[C@]2(C)O (stereo partly specified),-0.0202 ± 0.73
18,COC(=O)Cc1cccn1C,0.68
19,O=C(NCCCCCCNC(=O)ON=C1CCCCC1)ON=C1CCCCC1,0.0221
20,N=C(N)NC(=N)Nc1cccc(Cl)c1,3.22
21,O=C1CCC=CC1(O)C(=O)OCc1cccc(O)c1OC1OC(CO)C(O)C(O)C1O (stereo unspecified),1.92

row,SMILES,cell shape (Z-score)
1,Cc1nc2ccccn2c(=O)c1CCN1CCC(C(=O)c2ccc(F)cc2)CC1,2.15
2,COc1nccnc1NS(=O)(=O)c1ccc(NC(=O)/C=C/c2ccc([N+](=O)[O-])s2)cc1,6.12
3,O=c1c2ccccc2[nH]c(=S)n1CCN1CCC(=C(c2ccc(F)cc2)c2ccc(F)cc2)CC1,1.1
4,CC1(C)C(=O)C=CC2(C)C1CC(O)C1(C)C3=CCC(c4ccoc4)C3(C)CCC21 (stereo unspecified),0.444
5,CCCCCC1OC2=C(C(=O)N(OC)C2CSCC(O)C(=O)O)C(O)C1(C)O (stereo unspecified),1.51
6,O=C(/C=C/c1ccccc1)c1ccc(O)cc1,9.91
7,COc1ccc(NC(=O)Nc2ccc3c(c2)C(=O)N([C@@H](C)CO)C[C@H](C)[C@H](CN(C)Cc2ccc4c(c2)OCO4)O3)cc1,3.81
8,CO[C@@H]1CC(OC2CCC3(C)C(CCC45CCC(C6=CC(=O)OC6)C(C)(CCC43)C5=O)C2)O[C@H](C)[C@@H]1O[C@@H]1O[C@H](CO[C@@H]2O[C@H](CO)[C@@H](O)[C@H](O)[C@H]2O)[C@@H](O)[C@H](O)[C@H]1O (stereo partly specified),1.71
9,COC(=O)C1=CO[C@@H](O[C@@H]2O[C@H](CO)[C@@H](O)[C@H](O)[C@H]2O)[C@@H]2[C@@H]3CN4CCc5c([nH]c6ccccc56)[C@]4(C[C@H]12)O3,-1.89
10,CC(=O)c1cc(C)c(O)c(COC2OC(CO)C(O)C(O)C2O)c1O (stereo unspecified),0.904 ± 1.4
11,CN(C)CCOC(=O)C(c1ccccc1)C1(O)CCCC1 (stereo unspecified),-0.539
12,COC(=O)Cc1c(CCC(=O)O)oc2cc(C)cc(O)c2c1=O,1.09
13,C=C1C(=O)O[C@@H]2C3C(=C(C)[C@@H](O)[C@@H](OC(=O)/C(=C/C)COC(C)=O)[C@@H]12)C(=O)[C@H]1O[C@@]31C (stereo partly specified),-0.66
14,C=CC(C)(O)CC[C@H]1C(=C)CCC2[C@](C)(C(=O)O)CCC[C@@]21C (stereo partly specified),1.88
15,CC(=O)OC[C@]12[C@@H](OC(C)=O)C[C@@H]3[C@@H](OC(=O)c4ccccc4)[C@]1(OC3(C)C)[C@H](C)C[C@H](OC(=O)c1ccccc1)[C@@H]2OC(C)=O,2.48
16,COC(=O)c1cc2cc(O)c(-c3c(O)cc4cc(C(=O)OC)oc(=O)c4c3O)c(O)c2c(=O)o1,-2.17
17,OCC(CO)N[C@H]1C[C@](O)(CO)[C@@H](O)[C@H](O)[C@H]1O,2.43
18,COC(=O)C[C@H]1C(C)(C)C(=O)[C@@H]2CC3=C(CC[C@]4(C)C3=CC(=O)O[C@H]4c3ccoc3)[C@@]1(C)C2=O,2.15
19,Cc1c(Cn2c(C)nc3c(C(=O)O)cc(N4CCOCC4)cc32)cccc1C(F)(F)F,1.7
20,NC1(c2ccc(-c3nc4ccn5c(=O)[nH]nc5c4cc3-c3ccccc3)cc2)CCC1,1.08
21,C[C@@](Cc1ccc(O)c(O)c1)(NN)C(=O)O,1.55

row,SMILES,cell shape (Z-score)
1,OC(CCN1CCCCC1)(c1ccccc1)c1ccccc1,0.635
2,Clc1ccc2c(c1)C(N1CCNCC1)=Nc1ccccc1O2,0.271
3,Cc1c(C(=O)NN2CCOCC2)nn(-c2ccc(Cl)cc2Cl)c1-c1ccc(I)cc1,-0.191
4,CC(=O)O[C@@H]1c2c(ccc3ccc(=O)oc23)OC(C)(C)[C@@H]1OC(=O)C=C(C)C,-0.291 ± 0.17
5,CCN(CC)CCNC(=O)c1cc(Br)c(N)cc1OC,2.01
6,CC(C)C1C(=O)N(S(C)(=O)=O)[C@@H]2CCN(C(=O)/C=C/CN3CCCCC3)[C@@H]12 (stereo partly specified),1.03
7,Cc1ccc2c(c1O)C(=O)c1ccc(O[C@@H]3O[C@H](CO[C@@H]4OC[C@@H](O)[C@H](O)[C@H]4O)[C@@H](O)[C@H](O)[C@H]3O)cc1C2=O,1.53 ± 0.64
8,c1ccc2nc(C3=NCCN3)ccc2c1,0.187
9,CC(C)C1CCC2(C)CCC(O)C(C)(O)C2C1OC(=O)/C=C/c1ccccc1 (stereo unspecified),0.667 ± 2
10,CCN1CCN(c2cc3c(cc2F)c(=O)c(C(=O)O)cn3C2CC2)CC1,-0.0252
11,O=C1c2c(O)cc(O)cc2O[C@@H](c2ccc(O)cc2)[C@@H]1c1c(O)cc(O)c2c(=O)cc(-c3ccc(O)cc3)oc12,0.523
12,CC(Cc1ccc(O)c(O)c1)(NN)C(=O)O (stereo unspecified),-0.173
13,CC(C)C[C@@H](NC(=O)OCC1c2ccccc2-c2ccccc21)C(=O)O,1.4
14,O=C(C=Cc1ccccc1)NC(NC(=S)Nc1cccc2cccnc12)C(Cl)(Cl)Cl (stereo unspecified),1.46
15,C=C[C@H]1C[N@@]2CC[C@H]1C[C@@H]2[C@@H](O)c1ccnc2ccc(OC)cc12,1.81
16,Cc1cc2nc(NCCCO)n(CC(=O)c3cc(C(C)(C)C)c(O)c(C(C)(C)C)c3)c2cc1C,3.67
17,O=C1NC(=O)c2cc(Nc3ccc(F)cc3)c(Nc3ccc(F)cc3)cc21,1.81
18,COc1ccc2c(c1OC)CN(C)CCc1cc3c(cc1C(=O)C2)OCO3,6.66

# 5 structures from above, sorted by molecular weight, descending.
row,SMILES,cell shape (Z-score)
19,CC(C)C[C@](CC(=O)OCc1ccc(O[C@@H]2O[C@H](CO)[C@@H](O)[C@H](O)[C@H]2O)cc1)(O[C@@H]1O[C@H](CO)[C@@H](O)[C@H](O)[C@H]1O)C(=O)OCc1ccc(O[C@@H]2O[C@H](CO)[C@@H](O)[C@H](O)[C@H]2O)cc1,0.0281
5,CCCN(CC1CC1)c1nc(C)nc(Nc2c(Cl)cc(Cl)cc2Cl)c1Cl,1.02
19,O=C(NCCCCCCNC(=O)ON=C1CCCCC1)ON=C1CCCCC1,0.0221
10,CCN1CCN(c2cc3c(cc2F)c(=O)c(C(=O)O)cn3C2CC2)CC1,-0.0252
18,CC[C@@H](CO)Nc1nc(NCc2ccccc2)c2ncn(C(C)C)c2n1,2.91
